Results published in patent US12533362B2, “Methods for treating diseases associated with ciliopathies” (ALEXION PHARMACEUTICALS, INC., priority 2017, dated 2026).
At least one structure is not confirmed: it was looked up by name or label, or the drawing left a doubt. Some compounds share one wording; it may come from a single statement.

Assays:
[1] = tested on: control normal epithelial cells; test: automated cilia-based ciliogenesis assay in control normal epithelial cells; assay type: cell-based, human; settings: meta-analysis
Description: (§1) To identify compounds for treating diseases associated with ciliopathies such as, for example, NPHP, NPHP patient-derived cells were obtained and cell lines were established. Briefly, peeled renal epithelial cells, which are mostly proximal tubule cells (tbc) recovered from urine of NPHP1-deficient patients, were immortalized by retroviral gene transfer of SV40 T antigen. Cells were fixed and fluorescence-labeled with Hoechst (for nuclei staining), anti-γ-tubulin antibody (for basal bodies staining), and anti-ARL13B antibody (for cilia staining) for detection using immunofluorescence microscopy.
(§2) Briefly, NPHP patient-derived cells and control cells were cultured in complete media, at 39C (non-permissive temperature for SV40 expression), followed by automatic cilia analysis using immunofluorescence microscopy to measure ciliogenesis, e.g., in terms of % cilia. A spinning disk platform may be used for drug screening (FIG. 5, A-J) and ciliogenesis analysis of G3 multi-OMICs dataset (FIG. 29, A-E).
The cilia-based assay described above may be used to identify compounds that restore ciliogenesis. […] Automated random acquisition of 35 images per well may be performed, for example. Each image may have z-stack of 10 images taken at <1 μm intervals. Consecutive imaging of nucleus (Hoechst at 461 nm), basal body (γ-tubulin at 555 nm) and cilia (ARL13b at 647 nm) may be obtained.

[2] = tested on: NPHP patient-derived cells; test: automated cilia-based ciliogenesis assay in NPHP patient-derived cells; assay type: cell-based, human; settings: drug screening, various tested concentrations, FIG. 5 / FIG. 6
Description: as §1, §2
The cilia-based assay described above may be used to identify compounds that restore ciliogenesis. […] Automated random acquisition of 35 images per well may be performed, for example. Each image may have z-stack of 10 images taken at <1 μm intervals.

| SMILES | linear regression slope value of effect on ciliogenesis [1] | effect on ciliogenesis (percentage of ciliated cells) as compared with DMSO [2] |
| --- | --- | --- |
| O=C(O)COc1cccc(CN(Cc2ccc(-n3cccn3)cc2)S(=O)(=O)c2cccnc2)c1 [CP-544326, taprenepag] | 0.6369 and 1.03 | – |
| CN1CCC(=C2c3ccccc3C=Cc3ccccc32)CC1 [cyproheptadine] | – | did not have a significant effect on ciliogenesis |
| C[C@@H]1C[C@H]2[C@@H]3C[C@H](F)C4=CC(=O)C=C[C@]4(C)[C@@]3(F)[C@@H](O)C[C@]2(C)[C@@]1(O)C(=O)SCF [fluticasone] | – | did not have a significant effect on ciliogenesis |
| CCC(C)(C)C(=O)O[C@H]1C[C@@H](C)C=C2C=C[C@H](C)[C@H](CC[C@@H]3C[C@@H](O)CC(=O)O3)[C@H]21 [simvastatin] | – | did not have a significant effect on ciliogenesis |
